# Some of the results follow.
# What was measured:
# Experiment in all cases: glycan array binding signal (z-score within array); higher = stronger binding
# Settings in all cases: glycan notation: IUPAC condensed, linker removed; mutation: Q318A
# [1] = molecular target: GlcNAc(a1-6)Gal(b1-4)GlcNAc
# Procedure, shortened: (§1)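 Arrays were curated from the Consortium for Functional Glycomics database, 3228 in total, and kept only where the protein sequence was available. Binding is expressed as a within-array Z-score. This score was averaged across arrays of the same protein sequence at different concentrations or buffers and across linkers, and negative values can be read as non-binding.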
# [2] = molecular target: GlcNAc(b1-2)Gal(b1-3)GalNAc
# Procedure, shortened: as §1
# [3] = molecular target: GlcNAc(b1-2)Man(a1-3)[GlcNAc(b1-2)Man(a1-6)]Man(b1-4)GlcNAc(b1-4)GlcNAc
# Procedure, shortened: as §1
# [4] = molecular target: GlcNAc(b1-2)Man(a1-3)[GlcNAc(b1-2)Man(a1-6)]Man(b1-4)GlcNAc(b1-4)[Fuc(a1-6)]GlcNAc
# Procedure, shortened: as §1
# [5] = molecular target: GlcNAc(b1-2)Man(a1-3)[GlcNAc(b1-4)][GlcNAc(b1-2)Man(a1-6)]Man(b1-4)GlcNAc(b1-4)GlcNAc
# Procedure, shortened: as §1
# [6] = molecular target: GlcNAc(b1-2)Man(a1-3)[GlcNAc(b1-4)][GlcNAc(b1-2)Man(a1-6)]Man(b1-4)GlcNAc(b1-4)[Fuc(a1-6)]GlcNAc
# Procedure, shortened: as §1
# [7] = molecular target: GlcNAc(b1-2)[GlcNAc(b1-4)]Man(a1-3)[GlcNAc(b1-2)Man(a1-6)]Man(b1-4)GlcNAc(b1-4)GlcNAc
# Procedure, shortened: as §1
# [8] = molecular target: GlcNAc(b1-2)[GlcNAc(b1-4)]Man(a1-3)[GlcNAc(b1-4)][GlcNAc(b1-2)Man(a1-6)]Man(b1-4)GlcNAc(b1-4)GlcNAc
# Procedure, shortened: as §1
# [9] = molecular target: GlcNAc(b1-2)[GlcNAc(b1-4)]Man(a1-3)[GlcNAc(b1-4)][GlcNAc(b1-2)[GlcNAc(b1-6)]Man(a1-6)]Man(b1-4)GlcNAc(b1-4)GlcNAc
# Procedure, shortened: as §1
# [10] = molecular target: GlcNAc(b1-2)[GlcNAc(b1-4)]Man(a1-3)[GlcNAc(b1-4)][GlcNAc(b1-2)[GlcNAc(b1-6)]Man(a1-6)]Man(b1-4)GlcNAc(b1-4)[Fuc(a1-6)]GlcNAc
# Procedure, shortened: as §1
# [11] = molecular target: GlcNAc(b1-2)[GlcNAc(b1-6)]Man(a1-6)[GlcNAc(b1-2)Man(a1-3)]Man(b1-4)GlcNAc(b1-4)GlcNAc
# Procedure, shortened: as §1
# [12] = molecular target: GlcNAc(b1-2)[GlcNAc(b1-6)]Man(a1-6)[GlcNAc(b1-2)Man(a1-3)]Man(b1-4)GlcNAc(b1-4)[Fuc(a1-6)]GlcNAc
# Procedure, shortened: as §1
# [13] = molecular target: GlcNAc(b1-2)[GlcNAc(b1-6)]Man(a1-6)[GlcNAc(b1-4)][GlcNAc(b1-2)Man(a1-3)]Man(b1-4)GlcNAc(b1-4)GlcNAc
# Procedure, shortened: as §1
# GlcNAc(b1-3)Fuc = molecular target: GlcNAc(b1-3)Fuc
# Procedure, shortened: as §1
# GlcNAc(b1-3)Gal = molecular target: GlcNAc(b1-3)Gal
# Procedure, shortened: as §1
# [14] = molecular target: GlcNAc(b1-3)Gal(b1-3)GalNAc
# Procedure, shortened: as §1
# GlcNAc(b1-3)Gal(b1-4)Glc = molecular target: GlcNAc(b1-3)Gal(b1-4)Glc
# Procedure, shortened: as §1
# [15] = molecular target: GlcNAc(b1-3)Gal(b1-4)GlcNAc
# Procedure, shortened: as §1
# [16] = molecular target: GlcNAc(b1-3)Gal(b1-4)GlcNAc(b1-2)Man(a1-3)[GlcNAc(b1-3)Gal(b1-4)GlcNAc(b1-2)Man(a1-6)]Man(b1-4)GlcNAc(b1-4)GlcNAc
# Procedure, shortened: as §1
# [17] = molecular target: GlcNAc(b1-3)Gal(b1-4)GlcNAc(b1-2)Man(a1-3)[GlcNAc(b1-3)Gal(b1-4)GlcNAc(b1-2)Man(a1-6)]Man(b1-4)GlcNAc(b1-4)[Fuc(a1-6)]GlcNAc
# Procedure, shortened: as §1
# [18] = molecular target: GlcNAc(b1-3)Gal(b1-4)GlcNAc(b1-2)[GlcNAc(b1-3)Gal(b1-4)GlcNAc(b1-6)]Man(a1-6)[GlcNAc(b1-3)Gal(b1-4)GlcNAc(b1-2)Man(a1-3)]Man(b1-4)GlcNAc(b1-4)GlcNAc
# Procedure, shortened: as §1
# [19] = molecular target: GlcNAc(b1-3)Gal(b1-4)GlcNAc(b1-3)Gal(b1-4)GlcNAc
# Procedure, shortened: as §1
# [20] = molecular target: GlcNAc(b1-3)Gal(b1-4)GlcNAc(b1-3)Gal(b1-4)GlcNAc(b1-2)Man(a1-3)[GlcNAc(b1-3)Gal(b1-4)GlcNAc(b1-3)Gal(b1-4)GlcNAc(b1-2)Man(a1-6)]Man(b1-4)GlcNAc(b1-4)GlcNAc
# Procedure, shortened: as §1
# [21] = molecular target: GlcNAc(b1-3)Gal(b1-4)GlcNAc(b1-3)Gal(b1-4)GlcNAc(b1-2)Man(a1-3)[GlcNAc(b1-3)Gal(b1-4)GlcNAc(b1-3)Gal(b1-4)GlcNAc(b1-2)Man(a1-6)]Man(b1-4)GlcNAc(b1-4)[Fuc(a1-6)]GlcNAc
# Procedure, shortened: as §1
# [22] = molecular target: GlcNAc(b1-3)Gal(b1-4)GlcNAc(b1-3)Gal(b1-4)GlcNAc(b1-2)[GlcNAc(b1-3)Gal(b1-4)GlcNAc(b1-3)Gal(b1-4)GlcNAc(b1-6)]Man(a1-6)[GlcNAc(b1-3)Gal(b1-4)GlcNAc(b1-3)Gal(b1-4)GlcNAc(b1-2)Man(a1-3)]Man(b1-4)GlcNAc(b1-4)[Fuc(a1-6)]GlcNAc
# Procedure, shortened: as §1
# [23] = molecular target: GlcNAc(b1-3)Gal(b1-4)GlcNAc(b1-3)Gal(b1-4)GlcNAc(b1-3)Gal(b1-4)GlcNAc(b1-2)Man(a1-3)[GlcNAc(b1-3)Gal(b1-4)GlcNAc(b1-3)Gal(b1-4)GlcNAc(b1-3)Gal(b1-4)GlcNAc(b1-2)Man(a1-6)]Man(b1-4)GlcNAc(b1-4)GlcNAc
# Procedure, shortened: as §1
# [24] = molecular target: GlcNAc(b1-3)Gal(b1-4)GlcNAc(b1-3)Gal(b1-4)GlcNAc(b1-3)Gal(b1-4)GlcNAc(b1-2)Man(a1-3)[GlcNAc(b1-3)Gal(b1-4)GlcNAc(b1-3)Gal(b1-4)GlcNAc(b1-3)Gal(b1-4)GlcNAc(b1-2)Man(a1-6)]Man(b1-4)GlcNAc(b1-4)[Fuc(a1-6)]GlcNAc
# Procedure, shortened: as §1
# [25] = molecular target: GlcNAc(b1-3)Gal(b1-4)GlcNAc(b1-3)Gal(b1-4)GlcNAc(b1-3)Gal(b1-4)GlcNAc(b1-2)[GlcNAc(b1-3)Gal(b1-4)GlcNAc(b1-3)Gal(b1-4)GlcNAc(b1-3)Gal(b1-4)GlcNAc(b1-6)]Man(a1-6)[GlcNAc(b1-3)Gal(b1-4)GlcNAc(b1-3)Gal(b1-4)GlcNAc(b1-3)Gal(b1-4)GlcNAc(b1-2)Man(a1-3)]Man(b1-4)GlcNAc(b1-4)[Fuc(a1-6)]GlcNAc
# Procedure, shortened: as §1
# [26] = molecular target: GlcNAc(b1-3)Gal(b1-4)GlcNAc(b1-3)Gal(b1-4)GlcNAc(b1-3)Gal(b1-4)GlcNAc(b1-3)Gal(b1-4)GlcNAc(b1-2)Man(a1-3)[GlcNAc(b1-3)Gal(b1-4)GlcNAc(b1-3)Gal(b1-4)GlcNAc(b1-3)Gal(b1-4)GlcNAc(b1-3)Gal(b1-4)GlcNAc(b1-2)Man(a1-6)]Man(b1-4)GlcNAc(b1-4)GlcNAc
# Procedure, shortened: as §1
# [27] = molecular target: GlcNAc(b1-3)Gal(b1-4)GlcNAc(b1-3)Gal(b1-4)GlcNAc(b1-3)Gal(b1-4)GlcNAc(b1-3)Gal(b1-4)GlcNAc(b1-2)Man(a1-3)[GlcNAc(b1-3)Gal(b1-4)GlcNAc(b1-3)Gal(b1-4)GlcNAc(b1-3)Gal(b1-4)GlcNAc(b1-3)Gal(b1-4)GlcNAc(b1-2)Man(a1-6)]Man(b1-4)GlcNAc(b1-4)[Fuc(a1-6)]GlcNAc
# Procedure, shortened: as §1
# [28] = molecular target: GlcNAc(b1-3)Gal(b1-4)GlcNAc(b1-3)Gal(b1-4)GlcNAc(b1-3)Gal(b1-4)GlcNAc(b1-3)Gal(b1-4)GlcNAc(b1-2)[GlcNAc(b1-3)Gal(b1-4)GlcNAc(b1-3)Gal(b1-4)GlcNAc(b1-3)Gal(b1-4)GlcNAc(b1-3)Gal(b1-4)GlcNAc(b1-6)]Man(a1-6)[GlcNAc(b1-3)Gal(b1-4)GlcNAc(b1-3)Gal(b1-4)GlcNAc(b1-3)Gal(b1-4)GlcNAc(b1-3)Gal(b1-4)GlcNAc(b1-2)Man(a1-3)]Man(b1-4)GlcNAc(b1-4)[Fuc(a1-6)]GlcNAc
# Procedure, shortened: as §1
# [29] = molecular target: GlcNAc(b1-3)Gal(b1-4)GlcNAc(b1-3)Gal(b1-4)GlcNAc(b1-3)GalNAc
# Procedure, shortened: as §1
# [30] = molecular target: GlcNAc(b1-3)Gal(b1-4)GlcNAc(b1-3)GalNAc
# Procedure, shortened: as §1
# [31] = molecular target: GlcNAc(b1-3)Gal(b1-4)GlcNAc(b1-3)[GlcNAc(b1-3)Gal(b1-4)GlcNAc(b1-3)]GalNAc
# Procedure, shortened: as §1
# [32] = molecular target: GlcNAc(b1-3)Gal(b1-4)GlcNAc(b1-6)[Gal(b1-3)]GalNAc
# Procedure, shortened: as §1
# [33] = molecular target: GlcNAc(b1-3)Gal(b1-4)GlcNAc(b1-6)[GlcNAc(b1-3)Gal(b1-3)]GalNAc
# Procedure, shortened: as §1
# [34] = molecular target: GlcNAc(b1-3)Gal(b1-4)GlcNAc(b1-6)[GlcNAc(b1-3)]Gal(b1-4)GlcNAc
# Procedure, shortened: as §1
binder,measurement,setting,value
"SUN4 (Saccharomyces cerevisiae), P53616 (protein) MGSSHHHHHHSSGLVPRGSHNGSIYGDLADFSGPYEKFEDGTIPCGQFPSGQGVIPISWLDEGGWSGVENTDTSTGGSCKEGSYCSYACQPGMSKTQWPSDQPSDGRSIGGLLCKDGYLYRSNTDTDYLCEWGVDAAYVVSELSNDVAICRTDYPGTENMVIPTYVQAGDSLPLTVVDQDTYYTWQGLKTSAAYYVNNAGISVEDACVWGSSSSGVGNWAPLNFGAGSSDGVAYLSLIPNPNNGNALNFNVKIVAADDSSTVNGECIYENGSFSGGSDGCTVSVTAGKAKFVLYN",glycan array binding signal (z-score),[1],-0.09
same,glycan array binding signal (z-score),[2],-1.1
same,glycan array binding signal (z-score),[3],-0.045
same,glycan array binding signal (z-score),[4],-0.833
same,glycan array binding signal (z-score),[5],0.666
same,glycan array binding signal (z-score),[6],0.755
same,glycan array binding signal (z-score),[7],0.184
same,glycan array binding signal (z-score),[8],0.958
same,glycan array binding signal (z-score),[9],0.735
same,glycan array binding signal (z-score),[10],-0.115
same,glycan array binding signal (z-score),[11],-0.369
same,glycan array binding signal (z-score),[12],2.54
same,glycan array binding signal (z-score),[13],-1.18
same,glycan array binding signal (z-score),GlcNAc(b1-3)Fuc,-0.451
same,glycan array binding signal (z-score),GlcNAc(b1-3)Gal,-1.28
same,glycan array binding signal (z-score),[14],-0.311
same,glycan array binding signal (z-score),GlcNAc(b1-3)Gal(b1-4)Glc,0.27
same,glycan array binding signal (z-score),[15],-0.485
same,glycan array binding signal (z-score),[16],-0.627
same,glycan array binding signal (z-score),[17],-0.092
same,glycan array binding signal (z-score),[18],1.35
same,glycan array binding signal (z-score),[19],0.405
same,glycan array binding signal (z-score),[20],-0.497
same,glycan array binding signal (z-score),[21],0.822
same,glycan array binding signal (z-score),[22],0.713
same,glycan array binding signal (z-score),[23],0.249
same,glycan array binding signal (z-score),[24],0.75
same,glycan array binding signal (z-score),[25],1.44
same,glycan array binding signal (z-score),[26],1.01
same,glycan array binding signal (z-score),[27],-0.195
same,glycan array binding signal (z-score),[28],0.449
same,glycan array binding signal (z-score),[29],-0.343
same,glycan array binding signal (z-score),[30],0.009
same,glycan array binding signal (z-score),[31],1.21
same,glycan array binding signal (z-score),[32],-0.759
same,glycan array binding signal (z-score),[33],0.161
same,glycan array binding signal (z-score),[34],-0.217

# Given with tabs: entries from further up.
binder	measurement	setting	value
SUN4 (Saccharomyces cerevisiae), P53616 (protein) MGSSHHHHHHSSGLVPRGSHNGSIYGDLADFSGPYEKFEDGTIPCGQFPSGQGVIPISWLDEGGWSGVENTDTSTGGSCKEGSYCSYACQPGMSKTQWPSDQPSDGRSIGGLLCKDGYLYRSNTDTDYLCEWGVDAAYVVSELSNDVAICRTDYPGTENMVIPTYVQAGDSLPLTVVDQDTYYTWQGLKTSAAYYVNNAGISVEDACVWGSSSSGVGNWAPLNFGAGSSDGVAYLSLIPNPNNGNALNFNVKIVAADDSSTVNGECIYENGSFSGGSDGCTVSVTAGKAKFVLYN	glycan array binding signal (z-score)	[32]	-0.759
same	glycan array binding signal (z-score)	[33]	0.161
